Values from PubChem BioAssay AID1671195 (Yale University, 2021)
In all, the deposit lists about 22,000 reagents; shown is a random part of them. Of all reagents, about 1,510 (6.9%) got an active call. 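Active includes knockdowns raising or lowering LDL uptake; positive z-scores mean more uptake, negative mean less.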

Screen: 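Knockdowns that increase or decrease uptake of fluorescent LDL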 (primary screen)
Cells: human Huh7 hepatoma cells
Knock-down reagent: siRNA pool against human genes, 18 nM
Timing: about 2 to 2.5 days of knockdown, then 8 h LDL uptake
Treatment: DiI-labelled LDL at 30 µg/ml for 8 h, in lipoprotein-deficient serum medium
Read-out: 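Fluorescent LDL signal imaged in cells, scaled to the plate median, robust z-score for each replicate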
Reading the numbers: robust z-score: higher = more LDL uptake after knockdown
Hit rule: 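a gene counts as active if at least two replicate z-scores exceed ±2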

target gene,"robust z-score, replicate 1","robust z-score, replicate 2","robust z-score, replicate 3",Outcome
PTGDR2,-2.32,-1.32,-0.244,inactive
SERAC1,0.719,0.855,0.542,inactive
PODXL,-1.21,0.903,-1.27,inactive
SMYD1,1.48,1.6,1.51,inactive
LOC441567 (retired record),-0.071,-0.129,0.493,inactive
SPC24,-0.0414,-1.26,0.433,inactive
TAS2R39,0.129,-1.5,0.848,inactive
WDHD1,0.0154,-0.443,-0.841,inactive
PHLDA1,0.643,0.674,0.491,inactive
HMX2,-1.21,-1.51,-1.5,inactive
LOC390557 (retired record),-0.636,-0.742,-0.823,inactive
DPP10-AS1,0.647,0.426,0.274,inactive
CHCHD4,-1.09,0.0385,-0.733,inactive
ADGRE4P,1.76,3.72,3.21,active
SOCS3,0.424,2.23,0.632,inactive
PSMA4,-0.154,0.673,0.212,inactive
TCP1,0.501,0.284,0.314,inactive
KLK14,0.255,0.45,0.766,inactive
SNRPD2,-1.11,-0.875,-1.64,inactive
ITGB2,-0.569,-1.14,-0.816,inactive
CAB39L,-0.839,0.105,-0.474,inactive
OSBPL8,-2.28,0.157,0.118,inactive
MFN2,-0.462,-1.11,-0.111,inactive
KLHL4,0.742,-0.777,0.312,inactive
KIRREL3-AS3,-0.801,-0.662,-0.56,inactive
IFNLR1,0.544,-0.332,0.024,inactive
SLC13A3,-1.25,-1.56,-1.13,inactive
SOX6,-0.571,-0.262,-0.719,inactive
IGF1,2.43,1.7,2.43,active
GTSF1L,1.01,0.0915,-0.246,inactive
CCDC167,1.09,2.6,1.44,inactive
GRM2,-0.551,-1,-0.722,inactive
KIAA1958,0.191,-0.109,0.0424,inactive
MYBL2,-0.295,-0.805,-0.881,inactive
CNPPD1,-0.734,-0.0618,-0.132,inactive
GUCY2F,-0.709,1.32,-0.218,inactive
COG4,0.956,0.335,1.35,inactive
LOC388565 (retired record),-0.827,-0.629,-0.889,inactive
LOC441138 (retired record),1.98,1.88,0.863,inactive
ISX,-0.0553,-0.248,-0.466,inactive
MYOF,0.791,1.35,0.91,inactive
HSPA6,-0.588,-0.651,-0.402,inactive
LINC02595,-0.164,0.251,0.474,inactive
KLK12,0.788,1.24,1.15,inactive
FILIP1,-1.26,1.06,1.17,inactive

10 entries already listed, arranged by “robust z-score, replicate 2”, low to high.
target gene,"robust z-score, replicate 1","robust z-score, replicate 2","robust z-score, replicate 3",Outcome
HMX2,-1.21,-1.51,-1.5,inactive
TAS2R39,0.129,-1.5,0.848,inactive
SPC24,-0.0414,-1.26,0.433,inactive
LOC390557 (retired record),-0.636,-0.742,-0.823,inactive
WDHD1,0.0154,-0.443,-0.841,inactive
LOC441567 (retired record),-0.071,-0.129,0.493,inactive
PHLDA1,0.643,0.674,0.491,inactive
SERAC1,0.719,0.855,0.542,inactive
PODXL,-1.21,0.903,-1.27,inactive
SMYD1,1.48,1.6,1.51,inactive

The results go on.
target gene,"robust z-score, replicate 1","robust z-score, replicate 2","robust z-score, replicate 3",Outcome
TBC1D17,0.796,0.416,-0.117,inactive
TCN1,0.0196,0.332,0.45,inactive
TERF2IP,-1.72,-1.97,-1.62,inactive
ATP7A,0.963,0.967,1.39,inactive
BIK,0.481,0.258,0.916,inactive
LOC283801 (retired record),1.7,1.29,1.33,inactive
LOC388509 (retired record),-0.869,-1.01,-0.856,inactive
DHX36,-1.05,-0.47,-1.06,inactive
ANXA6,0.276,0.576,0.149,inactive
CLDN2,2.62,2.94,3.05,active
FCRL2,-1.23,-0.0533,-1.06,inactive
LOC441111 (retired record),0.637,0.2,0.613,inactive
CD207,-1.7,-0.0774,-0.086,inactive
LOC388277 (retired record),-0.632,-0.484,-0.6,inactive
GAL3ST1,-0.529,-1.31,-0.869,inactive
MINDY1,0.601,-0.281,0.205,inactive
ACSBG1,2.01,-0.366,0.101,inactive
IRAK1BP1,0.357,1.22,1.08,inactive
COPS8-DT,-0.428,-0.545,-0.571,inactive
BRMS1L,-0.964,-0.914,-1.01,inactive
COL2A1,1.86,-0.671,0.495,inactive
GJB2,-1.61,-1.45,-1.27,inactive
SLC36A4,0.673,0.385,-0.678,inactive
